# Whole data set: some 33,000 sequences, median “E-score (-0.5 to 0.5)” near -0.015, cut for the highest 2% near 0.3. The list shows a part of the results.
# Molecular target: T1, Abf1 (UniProt P14164)
# T1 sequence: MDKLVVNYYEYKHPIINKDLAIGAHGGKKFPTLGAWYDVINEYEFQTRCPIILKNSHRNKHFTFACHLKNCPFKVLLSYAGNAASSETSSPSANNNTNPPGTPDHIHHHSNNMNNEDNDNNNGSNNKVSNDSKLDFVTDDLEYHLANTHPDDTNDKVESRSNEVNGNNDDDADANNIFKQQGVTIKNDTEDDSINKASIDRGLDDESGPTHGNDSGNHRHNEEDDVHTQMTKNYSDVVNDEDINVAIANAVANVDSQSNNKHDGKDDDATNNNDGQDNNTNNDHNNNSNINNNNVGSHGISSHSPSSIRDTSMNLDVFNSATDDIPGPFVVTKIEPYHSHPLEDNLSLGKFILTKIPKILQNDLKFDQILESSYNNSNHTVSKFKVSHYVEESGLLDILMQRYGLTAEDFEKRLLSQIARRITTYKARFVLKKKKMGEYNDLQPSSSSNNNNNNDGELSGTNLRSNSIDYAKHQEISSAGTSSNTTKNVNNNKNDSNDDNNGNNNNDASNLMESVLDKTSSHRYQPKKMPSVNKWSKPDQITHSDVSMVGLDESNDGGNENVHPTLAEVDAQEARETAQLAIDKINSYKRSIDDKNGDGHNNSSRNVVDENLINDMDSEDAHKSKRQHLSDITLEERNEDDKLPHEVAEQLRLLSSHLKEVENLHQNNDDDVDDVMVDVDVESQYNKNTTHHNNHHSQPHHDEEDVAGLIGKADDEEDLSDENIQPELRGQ
# Assay: PBM E-score (8-mer binding enrichment) (E-score (-0.5 to 0.5)); higher = stronger / more preferred TF binding
# Details: protein concentration: 200 nM; construct: GST-full length
# How it was run: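 Masliner-normalised scans of fluorescent anti-GST signal were the basis for scoring. That signal came from GST-tagged yeast transcription factors applied at about 100-200 nM to double-stranded universal all-10-mer Agilent arrays on fresh or once-stripped slides. Each ungapped eight-base word, pooled with its reverse complement, received an E-score from the Universal PBM Analysis Suite.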
row,Sequence,PBM E-score
1,TGTTACAA,0.134
2,CTTTGGTA,0.0379
3,ATTAACAC,0.213
4,GCCCACCA,-0.236
5,CCCAAGCG,0.0254
6,AACTTGTA,0.00627
7,CTTAAAGA,-0.195
8,CATAACAG,-0.0699
9,AGGAACGG,0.0997
10,AAGAACCC,-0.182
11,TAGACGAA,0.338
12,GAGTGTCA,0.163
13,AGAGTGCA,-0.113
14,GGAGTGTA,-0.184
15,ATTTACCC,-0.014
16,ACCATAAA,0.141
17,CCCAATAC,-0.137
18,CGATGATA,0.305
19,CAGGGTCC,-0.194
20,ACGATGTA,0.203
21,CAGATTAC,0.0682
22,ACAGTGGA,0.127
23,CATAGCTC,-0.143
24,CGAGCGTA,0.109
25,AACTCGAG,-0.0947

row,Sequence,PBM E-score
1,GAAGGGAA,-0.157
2,AAAGATCG,0.157
3,CGTCTCAG,0.0175
4,CTTAATAC,0.129
5,ACCTCTCC,-0.267
6,TAAGACTA,-0.0858
7,GAGAATCC,-0.00411
8,GAATTTGA,0.0683
9,TACGCTCA,0.0112
10,CGGAGAAC,-0.184
11,CAGGGAAG,-0.338
12,CTTCAATA,0.0545
13,TGGCGAAA,-0.144
14,TAGCACAA,-0.106
15,GTGATAAA,0.412
16,GCGTCCAA,-0.114
17,CAGAAAGG,-0.12
18,TTACGCAA,0.0864
19,AGTCACAG,0.0551
20,CCCCCGCA,-0.263
21,GTACAGTA,-0.0741
22,AACAGTGA,0.201
23,CAATACCC,0.116
24,TCCGAAGA,-0.0522
25,CGCAATAG,-0.0336

# A portion from further up, as a working copy:
row,Sequence,PBM E-score
18,TTACGCAA,0.0864
19,AGTCACAG,0.0551
20,CCCCCGCA,-0.263
21,GTACAGTA,-0.0741

# Copied from the list.
# PBM E-score with TAGCACAA is entered as -0.106
# PBM E-score with AGTCACAG is entered as 0.0551

# (listing goes on)

row,Sequence,PBM E-score
1,CGATGGCA,-0.244
2,ACCGACGG,0.147
3,AACGCATA,0.111
4,CTGTGTTC,-0.0651
5,ATTAGGTC,0.177
6,AGCACTTA,-0.0307
7,CTACGTTA,0.152
8,TAGTACTA,0.0338
9,GTTGTTCA,0.0687
10,ACCGCCGG,-0.27
11,GAATTAAA,0.00779
12,CCCAACAA,0.0712
13,AGCATGCT,-0.103
14,CGACACAG,0.077
15,GGTCTCAA,-0.103
16,ATTATTAG,0.164
17,GTCGTCAC,0.35
18,ACGGTGAA,0.193
19,GCCTGTGA,-0.169
20,CCTAAACC,-0.0979
21,CTAGATCC,0.057
22,CACATACA,-0.183
23,CAAACTTA,0.134
24,ATTTTGGG,-0.0842
25,CTAAACCC,-0.083

row,Sequence,PBM E-score
1,CACCACGG,-0.187
2,AAGCTTAA,-0.204
3,GCTCTGCA,-0.285
4,AACTACCA,-0.066
5,GGTCGTCA,0.262
6,CCAGTTTC,-0.0969
7,TTCTCAAA,0.0846
8,TCCAAGAA,-0.156
9,CCACGGAG,0.0851
10,AAGCTAAG,-0.137
11,CACCCAGG,-0.214
12,ACCGAGTA,-0.118
13,TCCCGCCA,-0.119
14,GGCTTATA,-0.00496
15,CTGGTATA,0.0245
16,TATTGCGA,0.171
17,GAGCTGAA,-0.118
18,ATATATTG,-0.139
19,CTATTTAC,0.204
20,ATTGGGCG,-0.163
21,AATCACGC,0.127
22,CGTAGGTC,0.00797
23,GCGAGTGA,0.137
24,AACATCAA,0.118
25,ACTAAGAT,0.243

row,Sequence,PBM E-score
1,TGGTAAAA,-0.0106
2,CAATCCGC,0.101
3,CGAGAGAC,0.0295
4,CGTCTCAC,0.105
5,AATGCAAG,-0.0551
6,ATACCTAT,-0.0121
7,ACTTCTCC,-0.134
8,ATAGAGGG,-0.102
9,ACTACAGT,0.0322
10,CAAGCCTG,-0.122
11,GCGTTCAC,-0.00207
12,ATGTTGCC,-0.0429
13,CATAGACA,-0.0475
14,ATTTGTAC,0.0998
15,GAGTCTGA,-0.159
16,TCATGTAA,0.0458
17,AAATGCGT,0.128
18,AGCGGCCC,-0.291
19,CATTCCTC,0.0225
20,GAAACCTA,-0.202
21,AAGATTAA,0.0801
22,GACCCTTA,-0.0356
23,ATGCTTAA,-0.114
24,CATCACGC,0.191
25,AAGCTACA,0.00329

row,Sequence,PBM E-score
1,GCATAAAA,0.108
2,AAGCACCT,-0.0519
3,CCGGGTGA,0.12
4,AAGTGCGT,-0.136
5,CTCGGCAG,-0.0597
6,ATATTGGC,0.105
7,CACCTGCG,-0.0256
8,CGTCCCGC,-0.0216
9,AACGTTCG,0.07
10,ACTCGTGA,0.162
11,ATGTGAGC,-0.0727
12,TCAGGTCA,0.0438
13,AAGCTTTG,-0.169
14,AAGATAGC,-0.0167
15,AACTTCCG,0.139
16,ATCCGCTG,0.0713
17,ACCGTCCC,0.134
18,CTTCTAGA,-0.112
19,GAAAGAGA,-0.308
20,ATGCAGTA,0.062
21,ACTTTAAT,0.0587
22,AACAGAAT,-0.102
23,ACGGAGCG,0.14
24,GTATTCAA,0.0611
25,CTAAATCA,0.214

row,Sequence,PBM E-score
1,AGAAATAG,0.0373
2,CATTTTGG,0.124
3,GATACACA,0.0374
4,CTCTCCGA,-0.209
5,ACACTGCT,-0.318
6,GTACCCGA,-0.137
7,ACTGAGAG,-0.0505
8,AGCGATTG,-0.0461
9,TGCCAGAA,-0.152
10,GAGAAGAA,0.0903
11,GTGGCATA,-0.00846
12,GGGTCTGA,-0.273
13,CCTACATA,-0.147
14,AGTCGAAA,-0.0186
15,AGGTTCTG,-0.23
16,TACTTGCA,-0.0785
17,ACGGTACG,0.283
18,ACTTCTAA,0.0967
19,GCCCGTCC,-0.0682
20,GACAGTCA,0.0421
21,TAGTTTCA,0.121
22,GTAAATAA,0.211
